Laboratory results taken from article PMC12504568.
Results are given in words; binding and its absence hold for the method and conditions named. Binding seen in cells or lysates may run through a third protein. For some assays here: A result given as binding can be weak or reduced; the word gives no strength.

Sequences of proteins named here, by UniProt entry; tags and fusion partners are left off. A change or cut given only in a name is not applied to a line headed by its entry.
UniProt P49588: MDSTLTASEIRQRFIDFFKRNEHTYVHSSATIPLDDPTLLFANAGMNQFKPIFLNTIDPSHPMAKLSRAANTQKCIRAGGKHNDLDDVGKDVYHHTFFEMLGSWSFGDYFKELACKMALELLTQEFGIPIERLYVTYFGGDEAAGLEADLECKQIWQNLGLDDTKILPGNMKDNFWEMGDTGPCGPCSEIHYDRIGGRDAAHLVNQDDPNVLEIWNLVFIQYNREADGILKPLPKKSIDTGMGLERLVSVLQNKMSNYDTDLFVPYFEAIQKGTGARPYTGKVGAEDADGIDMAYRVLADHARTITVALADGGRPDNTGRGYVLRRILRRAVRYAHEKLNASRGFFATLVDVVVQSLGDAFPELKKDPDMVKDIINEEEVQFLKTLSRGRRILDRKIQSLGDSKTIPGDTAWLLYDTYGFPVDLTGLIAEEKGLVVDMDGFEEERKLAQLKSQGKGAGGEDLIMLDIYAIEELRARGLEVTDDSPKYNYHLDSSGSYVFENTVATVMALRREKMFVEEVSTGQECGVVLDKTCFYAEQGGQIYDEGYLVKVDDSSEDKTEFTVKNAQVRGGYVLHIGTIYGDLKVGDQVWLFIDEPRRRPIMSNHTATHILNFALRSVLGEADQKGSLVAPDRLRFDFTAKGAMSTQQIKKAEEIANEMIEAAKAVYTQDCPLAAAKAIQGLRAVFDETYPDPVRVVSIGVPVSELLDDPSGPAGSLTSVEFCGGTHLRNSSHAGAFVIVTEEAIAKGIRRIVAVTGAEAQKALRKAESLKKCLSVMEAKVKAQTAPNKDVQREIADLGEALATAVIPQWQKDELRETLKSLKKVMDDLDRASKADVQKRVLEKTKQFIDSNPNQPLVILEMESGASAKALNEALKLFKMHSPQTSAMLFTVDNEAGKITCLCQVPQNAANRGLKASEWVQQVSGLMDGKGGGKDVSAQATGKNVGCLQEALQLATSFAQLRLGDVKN
UniProt P61956: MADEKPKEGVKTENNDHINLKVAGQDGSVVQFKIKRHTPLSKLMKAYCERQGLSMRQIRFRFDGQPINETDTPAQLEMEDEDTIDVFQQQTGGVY
UniProt O60488: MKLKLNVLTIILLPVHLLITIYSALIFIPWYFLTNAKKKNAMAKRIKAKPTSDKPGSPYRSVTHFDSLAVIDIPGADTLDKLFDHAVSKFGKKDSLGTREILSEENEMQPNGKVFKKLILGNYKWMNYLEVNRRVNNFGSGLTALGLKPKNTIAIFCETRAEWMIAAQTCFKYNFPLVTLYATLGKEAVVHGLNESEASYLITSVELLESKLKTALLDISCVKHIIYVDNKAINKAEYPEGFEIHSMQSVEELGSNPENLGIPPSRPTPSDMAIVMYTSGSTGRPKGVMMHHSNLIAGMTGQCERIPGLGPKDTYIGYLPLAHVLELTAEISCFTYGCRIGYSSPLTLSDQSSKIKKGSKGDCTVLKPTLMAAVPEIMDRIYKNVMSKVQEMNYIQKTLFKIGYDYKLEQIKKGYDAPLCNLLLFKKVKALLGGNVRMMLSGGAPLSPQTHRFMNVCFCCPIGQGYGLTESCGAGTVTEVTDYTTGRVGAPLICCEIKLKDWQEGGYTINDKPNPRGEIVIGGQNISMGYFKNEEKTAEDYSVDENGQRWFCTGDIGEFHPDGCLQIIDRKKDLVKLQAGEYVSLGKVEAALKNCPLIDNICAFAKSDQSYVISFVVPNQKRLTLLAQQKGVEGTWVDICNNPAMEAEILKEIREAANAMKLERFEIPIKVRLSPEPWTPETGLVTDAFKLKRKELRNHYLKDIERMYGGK
UniProt Q13547: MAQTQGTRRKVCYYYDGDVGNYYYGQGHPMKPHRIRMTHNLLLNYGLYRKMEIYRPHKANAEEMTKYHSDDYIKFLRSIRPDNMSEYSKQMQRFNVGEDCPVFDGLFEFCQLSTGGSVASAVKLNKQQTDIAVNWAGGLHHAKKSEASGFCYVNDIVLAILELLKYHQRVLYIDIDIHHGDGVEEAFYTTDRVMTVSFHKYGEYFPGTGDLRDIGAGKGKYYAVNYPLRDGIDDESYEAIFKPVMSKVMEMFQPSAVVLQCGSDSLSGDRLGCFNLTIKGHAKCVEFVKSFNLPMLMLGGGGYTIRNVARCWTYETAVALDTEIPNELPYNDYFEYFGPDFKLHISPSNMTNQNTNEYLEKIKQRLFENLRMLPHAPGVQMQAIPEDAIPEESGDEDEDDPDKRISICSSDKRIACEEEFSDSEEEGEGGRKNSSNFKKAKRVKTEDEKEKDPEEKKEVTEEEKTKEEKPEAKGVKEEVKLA

Key:
HA-AARS1 (K823A) = HA-AARS1 (K823A) (UniProt P49588); test: co-IP; HA-AARS1 and His-SUMO2 constructs transfected into HEK293T cells; complexes precipitated with anti-HA antibody
HA-AARS1 = HA-AARS1 (UniProt P49588); test: as above
[1] = biological target: SUMO2 (human (endogenous in A549 and PC9)) (UniProt P61956); test: co-IP; endogenous proteins, cell lysate in NP-40 lysis buffer, antibody crosslinked (DSS) to Protein A/G magnetic beads, overnight 4 °C; precipitating antibody of Fig. 6c not told; also after FINs (Fig. 6o: more SUMO2-AARS1, less SUMO2-HDAC1)
[2] = biological target: ACSL4 (human (endogenous in A549 and PC9)) (UniProt O60488); test: proximity ligation; Duolink In Situ PLA on fixed, permeabilised LUAD cells (control and SUMO2-K11R knock-in); rabbit anti-SUMO2 and mouse anti-ACSL4; confocal microscopy
[3] = biological target: HDAC1 (human (endogenous in LUAD cells)) (UniProt Q13547); test: co-IP; endogenous proteins, LUAD cell lysate, precipitated with AARS1 antibody or HDAC1 antibody crosslinked to Protein A/G magnetic beads, overnight 4 °C
[4] = biological target: AARS1 (human (endogenous in LUAD cells)) (UniProt P49588); test: as above

Substance | binding (HA-AARS1) | binding [2] | also measured
HDAC1 (from UniProt Q13547 1-482) (enzyme) | – | – | binding [1]: binds
His-SUMO2 (D63A) (from UniProt P61956) | no binding | – | –
SUMO2-K11R (from UniProt P61956) | – | binds | –

The next lines start with results.

binding (HA-AARS1) | binding [2] | Substance | also measured
binds | – | His-SUMO2 (from UniProt P61956) | binding (HA-AARS1 (K823A)): no binding
– | binds | SUMO2 (from UniProt P61956) | binding [3]: binds; binding [4]: binds
